Assay results taken from the supplement of paper PMC11438910.
The other results are listed elsewhere or left out. Most of these values are background signal.

Legend:
Experiment in all cases: fluorescence intensity of antibody binding to polysaccharide-coupled beads; higher = stronger binding
[1] = target: pneumococcal polysaccharide Pn19B
[2] = target: pneumococcal polysaccharide Pn19C
[3] = target: pneumococcal polysaccharide Pn19F
[4] = target: pneumococcal polysaccharide Pn2
[5] = target: pneumococcal polysaccharide Pn20A
[6] = target: pneumococcal polysaccharide Pn20B
[7] = target: pneumococcal polysaccharide Pn21
[8] = target: pneumococcal polysaccharide Pn22A
[9] = target: pneumococcal polysaccharide Pn22F
[10] = target: pneumococcal polysaccharide Pn23A
[11] = target: pneumococcal polysaccharide Pn23B
[12] = target: pneumococcal polysaccharide Pn23F
[13] = target: pneumococcal polysaccharide Pn24A
[14] = target: pneumococcal polysaccharide Pn24B
[15] = target: pneumococcal polysaccharide Pn24F
[16] = target: pneumococcal polysaccharide Pn25A
[17] = target: pneumococcal polysaccharide Pn25F
[18] = target: pneumococcal polysaccharide Pn27
[19] = target: pneumococcal polysaccharide Pn28A
[20] = target: pneumococcal polysaccharide Pn28F
[21] = target: pneumococcal polysaccharide Pn29
[22] = target: pneumococcal polysaccharide Pn3
[23] = target: pneumococcal polysaccharide Pn31
[24] = antibody concentration 0.1 ng/mL
[25] = antibody concentration 0.534724 ng/mL
[26] = antibody concentration 2.8593 ng/mL
[27] = antibody concentration 15.2894 ng/mL
[28] = antibody concentration 81.7561 ng/mL
[29] = antibody concentration 437.17 ng/mL
[30] = antibody concentration 2337.65 ng/mL
[31] = antibody concentration 12500 ng/mL

B1: 4-173.4 (protein)
chain 1: QLQLQESGPGLVKPSETLSLTCAVSGGSISSHYWSWIRQPPGKGLEWIGRFSAGGGSTDYNPSLKSRVTISTDTSKNQFTLNLNSVTAADTAVYYCTRGSYTSDYWGQGVLVTVSS
chain 2: QAALTQSPSVSGSPGQSVTISCTGTSSDIGGYIRVSWYQQHPGKAPKLMIYEVSKRPSGVSDRFSGSKSGNTASLTISGLQAEDEADYYCFSYARGDTVLLGGGTRLTVL
Question: Which results are given for B1?
Answer: fluorescence intensity [1, 24]: 29.5 MFI; fluorescence intensity [1, 25]: 29 MFI; fluorescence intensity [1, 26]: 30 MFI; fluorescence intensity [1, 27]: 26.2 MFI; fluorescence intensity [1, 28]: 29 MFI; fluorescence intensity [1, 29]: 30.2 MFI; fluorescence intensity [1, 30]: 31.5 MFI; fluorescence intensity [1, 31]: 82 MFI; fluorescence intensity [2, 24]: 26.2 MFI; fluorescence intensity [2, 25]: 26.5 MFI; fluorescence intensity [2, 26]: 26.2 MFI; fluorescence intensity [2, 27]: 27.2 MFI; fluorescence intensity [2, 28]: 25.2 MFI; fluorescence intensity [2, 29]: 26 MFI; fluorescence intensity [2, 30]: 28 MFI; fluorescence intensity [2, 31]: 55.5 MFI; fluorescence intensity [3, 24]: 26.5 MFI; fluorescence intensity [3, 25]: 26.2 MFI; fluorescence intensity [3, 26]: 25.5 MFI; fluorescence intensity [3, 27]: 26.5 MFI; fluorescence intensity [3, 28]: 23.8 MFI; fluorescence intensity [3, 29]: 29.5 MFI; fluorescence intensity [3, 30]: 31.5 MFI; fluorescence intensity [3, 31]: 44 MFI; fluorescence intensity [4, 24]: 18.8 MFI; fluorescence intensity [4, 25]: 19.8 MFI; fluorescence intensity [4, 26]: 19 MFI; fluorescence intensity [4, 27]: 20 MFI; fluorescence intensity [4, 28]: 21 MFI; fluorescence intensity [4, 29]: 19.8 MFI; fluorescence intensity [4, 30]: 22.5 MFI; fluorescence intensity [4, 31]: 28 MFI; fluorescence intensity [5, 24]: 23.5 MFI; fluorescence intensity [5, 25]: 22.5 MFI; fluorescence intensity [5, 26]: 23 MFI; fluorescence intensity [5, 27]: 22.5 MFI; fluorescence intensity [5, 28]: 22.2 MFI; fluorescence intensity [5, 29]: 22 MFI; fluorescence intensity [5, 30]: 25.5 MFI; fluorescence intensity [5, 31]: 57.2 MFI; fluorescence intensity [6, 24]: 23.5 MFI; fluorescence intensity [6, 25]: 24 MFI; fluorescence intensity [6, 26]: 24 MFI; fluorescence intensity [6, 27]: 24.5 MFI; fluorescence intensity [6, 28]: 24 MFI; fluorescence intensity [6, 29]: 23.5 MFI; fluorescence intensity [6, 30]: 23.5 MFI; fluorescence intensity [6, 31]: 30 MFI; fluorescence intensity [7, 24]: 19.5 MFI; fluorescence intensity [7, 25]: 19 MFI; fluorescence intensity [7, 26]: 19 MFI; fluorescence intensity [7, 27]: 18.8 MFI; fluorescence intensity [7, 28]: 20.8 MFI; fluorescence intensity [7, 29]: 19 MFI; fluorescence intensity [7, 30]: 22 MFI; fluorescence intensity [7, 31]: 23.8 MFI; fluorescence intensity [8, 24]: 20 MFI; fluorescence intensity [8, 25]: 22 MFI; fluorescence intensity [8, 26]: 19.8 MFI; fluorescence intensity [8, 27]: 20.5 MFI; fluorescence intensity [8, 28]: 21 MFI; fluorescence intensity [8, 29]: 21.5 MFI; fluorescence intensity [8, 30]: 22.5 MFI; fluorescence intensity [8, 31]: 34 MFI; fluorescence intensity [9, 24]: 31.5 MFI; fluorescence intensity [9, 25]: 29 MFI; fluorescence intensity [9, 26]: 35 MFI; fluorescence intensity [9, 27]: 31 MFI; fluorescence intensity [9, 28]: 32.8 MFI; fluorescence intensity [9, 29]: 31.5 MFI; fluorescence intensity [9, 30]: 33.5 MFI; fluorescence intensity [9, 31]: 36.5 MFI; fluorescence intensity [10, 24]: 25.8 MFI; fluorescence intensity [10, 25]: 27.8 MFI; fluorescence intensity [10, 26]: 23 MFI; fluorescence intensity [10, 27]: 22 MFI; fluorescence intensity [10, 28]: 22.5 MFI; fluorescence intensity [10, 29]: 27.5 MFI; fluorescence intensity [10, 30]: 35.8 MFI; fluorescence intensity [10, 31]: 56 MFI; fluorescence intensity [11, 24]: 29.8 MFI; fluorescence intensity [11, 25]: 30.5 MFI; fluorescence intensity [11, 26]: 31 MFI; fluorescence intensity [11, 27]: 28.8 MFI; fluorescence intensity [11, 28]: 28.2 MFI; fluorescence intensity [11, 29]: 31 MFI; fluorescence intensity [11, 30]: 32 MFI; fluorescence intensity [11, 31]: 35.2 MFI; fluorescence intensity [12, 24]: 18 MFI; fluorescence intensity [12, 25]: 18.5 MFI; fluorescence intensity [12, 26]: 18.2 MFI; fluorescence intensity [12, 27]: 18 MFI; fluorescence intensity [12, 28]: 18.5 MFI; fluorescence intensity [12, 29]: 21 MFI; fluorescence intensity [12, 30]: 23.5 MFI; fluorescence intensity [12, 31]: 30.5 MFI; fluorescence intensity [13, 24]: 16.5 MFI; fluorescence intensity [13, 25]: 15.5 MFI; fluorescence intensity [13, 26]: 16.5 MFI; fluorescence intensity [13, 27]: 14.5 MFI; fluorescence intensity [13, 28]: 14 MFI; fluorescence intensity [13, 29]: 15.5 MFI; fluorescence intensity [13, 30]: 17 MFI; fluorescence intensity [13, 31]: 20.5 MFI; fluorescence intensity [14, 24]: 17.2 MFI; fluorescence intensity [14, 25]: 17 MFI; fluorescence intensity [14, 26]: 17.5 MFI; fluorescence intensity [14, 27]: 16.8 MFI; fluorescence intensity [14, 28]: 17.5 MFI; fluorescence intensity [14, 29]: 18.5 MFI; fluorescence intensity [14, 30]: 19.5 MFI; fluorescence intensity [14, 31]: 30.5 MFI; fluorescence intensity [15, 24]: 17 MFI; fluorescence intensity [15, 25]: 18.5 MFI; fluorescence intensity [15, 26]: 17 MFI; fluorescence intensity [15, 27]: 15.5 MFI; fluorescence intensity [15, 28]: 16 MFI; fluorescence intensity [15, 29]: 17 MFI; fluorescence intensity [15, 30]: 23.8 MFI; fluorescence intensity [15, 31]: 30.5 MFI; fluorescence intensity [16, 24]: 23.5 MFI; fluorescence intensity [16, 25]: 24 MFI; fluorescence intensity [16, 26]: 25 MFI; fluorescence intensity [16, 27]: 23.5 MFI; fluorescence intensity [16, 28]: 24.5 MFI; fluorescence intensity [16, 29]: 28.5 MFI; fluorescence intensity [16, 30]: 29 MFI; fluorescence intensity [16, 31]: 36.5 MFI; fluorescence intensity [17, 24]: 31 MFI; fluorescence intensity [17, 25]: 29.5 MFI; fluorescence intensity [17, 26]: 31.8 MFI; fluorescence intensity [17, 27]: 30.5 MFI; fluorescence intensity [17, 28]: 30 MFI; fluorescence intensity [17, 29]: 32 MFI; fluorescence intensity [17, 30]: 32.5 MFI; fluorescence intensity [17, 31]: 40.5 MFI; fluorescence intensity [18, 24]: 16 MFI; fluorescence intensity [18, 25]: 16 MFI; fluorescence intensity [18, 26]: 18 MFI; fluorescence intensity [18, 27]: 16.5 MFI; fluorescence intensity [18, 28]: 17.5 MFI; fluorescence intensity [18, 29]: 18.2 MFI; fluorescence intensity [18, 30]: 25 MFI; fluorescence intensity [18, 31]: 79.2 MFI; fluorescence intensity [19, 24]: 28 MFI; fluorescence intensity [19, 25]: 27 MFI; fluorescence intensity [19, 26]: 28 MFI; fluorescence intensity [19, 27]: 27 MFI; fluorescence intensity [19, 28]: 26.2 MFI; fluorescence intensity [19, 29]: 28 MFI; fluorescence intensity [19, 30]: 28.5 MFI; fluorescence intensity [19, 31]: 35 MFI; fluorescence intensity [20, 24]: 31 MFI; fluorescence intensity [20, 25]: 29 MFI; fluorescence intensity [20, 26]: 30.5 MFI; fluorescence intensity [20, 27]: 29.5 MFI; fluorescence intensity [20, 28]: 28.5 MFI; fluorescence intensity [20, 29]: 30.8 MFI; fluorescence intensity [20, 30]: 32 MFI; fluorescence intensity [20, 31]: 53.8 MFI; fluorescence intensity [21, 24]: 15.5 MFI; fluorescence intensity [21, 25]: 16 MFI; fluorescence intensity [21, 26]: 17.5 MFI; fluorescence intensity [21, 27]: 16.5 MFI; fluorescence intensity [21, 28]: 16 MFI; fluorescence intensity [21, 29]: 18.5 MFI; fluorescence intensity [21, 30]: 20 MFI; fluorescence intensity [21, 31]: 48.5 MFI; fluorescence intensity [22, 24]: 16.2 MFI; fluorescence intensity [22, 25]: 20.5 MFI; fluorescence intensity [22, 26]: 88 MFI; fluorescence intensity [22, 27]: 230 MFI; fluorescence intensity [22, 28]: 1080 MFI; fluorescence intensity [22, 29]: 6060 MFI; fluorescence intensity [22, 30]: 7830 MFI; fluorescence intensity [22, 31]: 8110 MFI; fluorescence intensity [23, 24]: 13.5 MFI; fluorescence intensity [23, 25]: 13.5 MFI; fluorescence intensity [23, 26]: 14 MFI; fluorescence intensity [23, 27]: 12.5 MFI
